About 770 (0.35%) of roughly 220,000 compounds were called active. The inconclusive results got no clear call from the source; some entries with a clear call stand among them for comparison. Cut-off read from the data, not from the text of the source: active = binding response below about 49% or above about 150%; inconclusive = no clear call, values can overlap the other calls; inactive = in between.
Target: Guanine nucleotide-binding protein G(o) subunit alpha (Homo sapiens) (UniProt P09471)
Assay: RGS7-Galphao binding modulators, primary screen, biochemical, multiplexed bead flow cytometry (AID 1439);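 note: fluorescent Galphao held in activated GDP-AlF4 state binding bead-coupled RGS7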
Conditions: at 10 µM, actives lie on both sides

The chains behind the UniProt entries cited, without tags or fusion partners.
UniProt P09471, whole entry, looked up: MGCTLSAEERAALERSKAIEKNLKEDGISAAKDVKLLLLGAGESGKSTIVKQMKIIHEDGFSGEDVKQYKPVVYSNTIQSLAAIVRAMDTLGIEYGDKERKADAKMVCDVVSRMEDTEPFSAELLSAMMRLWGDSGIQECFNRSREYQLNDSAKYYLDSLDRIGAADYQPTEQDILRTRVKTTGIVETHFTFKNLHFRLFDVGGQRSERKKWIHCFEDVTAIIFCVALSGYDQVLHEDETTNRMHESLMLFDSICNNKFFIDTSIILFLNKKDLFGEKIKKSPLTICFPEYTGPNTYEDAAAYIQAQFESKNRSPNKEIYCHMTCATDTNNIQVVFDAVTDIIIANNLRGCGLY

| Compound | binding response (% of control) |
| --- | --- |
| COc1ccc(Cc2nc(-c3ccc(Cl)cc3)no2)cc1 | inactive: 99.2% |
| Cc1ccccc1C([O-])=Nc1ccc[n+](-c2nc3ccccc3nc2NS(=O)(=O)c2ccccc2)c1 | inconclusive: 149% |
| CC(Oc1ccc(Br)cc1)C(=O)NCc1ccccn1 (stereo not drawn) | inactive: 99.7% |
| Cc1ccc(C(=O)COC(=O)c2cnccn2)cc1[N+](=O)[O-] | inconclusive: 133% |
| COC(=O)Cc1ccc(NC(=S)NC2CC2)cc1 | inconclusive: 107% |
| CCOc1ccc(/C=C2\CCc3ccccc3C2=O)cc1 | inconclusive: 77.7% |
| CN(C)S(=O)(=O)c1cccc(NC(=S)Nc2cccc3cnccc23)c1 | inconclusive: 70.3% |
| COc1ccccc1NC(=O)NCCCl | inactive: 137% |
| O=C(/C=C/c1ccc(F)cc1)NC(=S)NNC(=O)c1cnccn1 | inconclusive: 90.4% |
| COc1cc(C2=Nc3ccc(Br)cc3C(c3ccccc3)N2CC(=O)NN)cc(OC)c1OC (stereo not drawn) | inconclusive: 123% |
| CCc1ccccc1NC(=O)CCc1nc(-c2cccs2)no1 | inconclusive: 92.7% |
| O=C(O)c1ccc2c(c1)OCCCO2 | inconclusive: 89.1% |
| O=C(CCNC(=O)c1ccccc1)OCC(=O)c1ccccc1 | inactive: 100% |
| NNC(=O)c1nc[nH]c1C(=O)Nc1ccccc1[N+](=O)[O-] | inactive: 110% |
| CSCC(=O)Nc1cc(C)on1 | inconclusive: 89.9% |
| Cc1ccc(C(=O)COC(=O)CCc2ccc(S(=O)(=O)N3CCCCC3)cc2)cc1 | inactive: 103% |
| CN(CC(=O)NCc1ccco1)S(=O)(=O)c1ccc2c(c1)c(=O)n(C)c(=O)n2C | inconclusive: 105% |
| c1ccc(C2[C@H]3CN(Cc4cccnc4)[C@H](c4ccccc4)C34CC2(c2ccccc2)C4)cc1 (stereo partly drawn) | inconclusive: 124% |
| CCCCCCC(=O)Cc1cc(OC)c(OC)cc1C=C(C(=O)OCC)C(=O)OCC | inactive: 97.1% |
| COc1ccccc1NC(=S)N1CCC(C(=O)c2ccc(F)cc2)CC1 | inactive: 101% |

5 entries from above, set out differently:
Compound | binding response (% of control)
COc1ccccc1NC(=O)NCCCl | inactive: 137%
O=C(/C=C/c1ccc(F)cc1)NC(=S)NNC(=O)c1cnccn1 | inconclusive: 90.4%
COc1cc(C2=Nc3ccc(Br)cc3C(c3ccccc3)N2CC(=O)NN)cc(OC)c1OC (stereo not drawn) | inconclusive: 123%
CCc1ccccc1NC(=O)CCc1nc(-c2cccs2)no1 | inconclusive: 92.7%
O=C(O)c1ccc2c(c1)OCCCO2 | inconclusive: 89.1%

More structures.

| Compound | binding response (% of control) |
| --- | --- |
| Cc1cc(C(=O)NN)c(Cl)cc1Cl | inconclusive: -632% |
| CCN(CC)c1ccc(CN2CCC(C(=O)NCc3ccc(C)cc3)CC2)cc1 | inactive: 105% |
| FC(F)(F)c1cccc(OCc2nnc3n2CCC3)c1 | inconclusive: 118% |
| CCOC(=O)N1CCC(NC(=S)Nc2ccc3nc(N4CCN(CC)CC4)cc(C)c3c2)CC1 | inconclusive: 104% |
| CC(C)C[C@H](NC(=O)c1nc[nH]c1C(=O)N1CCN(c2ccccc2)CC1)C(=O)OCc1ccccc1 | inconclusive: 90.6% |
| CCc1ccc2c(c1)C(c1cccs1)=NNC(c1cccnc1)=N2 | inactive: 98.7% |
| CCNS(=O)(=O)c1cc(OC)c(Cl)cc1OC | inactive: 105% |
| O=C(O)c1ccc(N/N=C/c2ccc3nccnc3c2)cc1 | inconclusive: 106% |
| Cc1cccc(NC(=O)CSc2nc(C)c(Cc3ccccc3)c(=O)[nH]2)c1C | inactive: 93.2% |
| CC1CCN(c2ccc(C(=O)NCc3ccco3)cc2[N+](=O)[O-])CC1 | inactive: 105% |
| N#Cc1c(N)n(-c2ccc(N)cc2)c2nc3ccccc3nc12 | inconclusive: 114% |
| CNC(=O)COC(=O)c1ccc(Cl)c(S(N)(=O)=O)c1 | inconclusive: 189% |
| COc1ccc(CCNC(=O)CCCOc2cccc(C)c2C)cc1OC | inconclusive: 100% |
| COC(=O)c1cc(OC)c(OC)cc1NC(=S)N1CCN(c2ccccc2)CC1 | inactive: 102% |
| Cc1cccc(Nc2nc(N)nc(CCl)n2)c1C | inconclusive: 102% |
| COc1cc2c(cc1OC)C(c1ccccc1N)=NCC2 | inconclusive: 74.2% |
| COC(=O)N/N=C(\C)c1cccs1 | inconclusive: 423% |
| C/C=C\C=C/C(=O)Nc1cccc(C2=NOC3(C2)C[C@@H](C(N)=O)N(C(=O)/C=C/C=C\C)C3)c1 (stereo partly drawn) | inconclusive: 37.4% |
| COC(=O)c1ccc(C23CC4(C2)[C@H](CN(Cc2ccc(-c5ccccc5)cc2)[C@@H]4c2ccccc2)C3c2ccc(Cl)nc2)cc1 (stereo partly drawn) | inconclusive: 91.2% |
| CC(=O)Nc1ccccc1OC(C)C(=O)N1CCC(C)CC1 (stereo not drawn) | inconclusive: 103% |

| Compound | binding response (% of control) |
| --- | --- |
| S=C(c1ccc(-c2ccc(Cl)cc2Cl)o1)N1CCCC1 | inconclusive: 109% |
| N#Cc1c(-c2cccc(Cl)c2)[nH]c(=S)[nH]c1=O | inconclusive: 110% |
| CCOC(=O)N1C2=NC(C(=O)OC)=C(C(=O)OC)[C@@H]3Nc4ccccc4[C@]23C[C@H]1C(=O)OC | inconclusive: 117% |
| O=C(Nc1ccc(F)cc1)Oc1ccc[nH]c1=O | inconclusive: 109% |
| O=C(Nc1ccc(Cl)c(Cl)c1)N(CCCN1CCOCC1)Cc1cccnc1 | inconclusive: 94.8% |
| COc1cccc(Nc2nc3cc(OC)ccc3cc2C#N)c1 | inconclusive: 96.8% |
| COCC(=O)n1nc(-c2ccccc2)nc1NCc1ccccc1 | inconclusive: 85.8% |
| Cn1nnnc1SCC(=O)Nc1ccc(Cl)c(S(=O)(=O)N2CCOCC2)c1 | inconclusive: 134% |
| COc1ccc(N=C2SCC(c3ccc([N+](=O)[O-])cc3)=NN2CCO)cc1 | inconclusive: 96.5% |
| Cc1cccc(Cl)c1NC(=O)N1CCCN(c2nc3ccc(Cl)cc3s2)CC1 | inconclusive: 34.2% |
| NC(=S)Cc1ccc(Cl)cc1Cl | inconclusive: 66.3% |
| NC(=O)C1CCN(Cc2nc(-c3cccs3)no2)CC1 | inconclusive: 84.1% |
| COc1ccccc1N1C(=O)C2C(C(=O)c3ccccc3)=NN(c3ccc(C)cc3)C2C1=O (stereo not drawn) | inconclusive: 49.1% |
| O=C(Cn1nnc2ccccc21)N1CCCCC1 | inactive: 106% |
| CCc1nn(-c2ccccc2)c(=S)c2ccccc12 | inconclusive: 94.1% |
| O=C(CSc1nnc(SCc2ccccc2Cl)s1)N/N=C/c1ccc(C(=O)O)cc1 | inconclusive: 120% |
| CC1=C(C#N)c2nc(N)c(C#N)c(C)c2/C1=C\c1ccc(OCC(=O)O)c(Cl)c1 | inconclusive: 90.8% |
| Cc1ccc(Nc2ccc(S(=O)(=O)N3CCOCC3)cc2[N+](=O)[O-])cc1C | inactive: 100% |

From PubChem BioAssay AID1439 (NMMLSC, 2008)
